# The supplement of paper PMC10849652
# Sequences of proteins named here, by UniProt entry; tags and fusion partners are left off. A change or cut given only in a name is not applied to a line headed by its entry.
# UniProt P33121: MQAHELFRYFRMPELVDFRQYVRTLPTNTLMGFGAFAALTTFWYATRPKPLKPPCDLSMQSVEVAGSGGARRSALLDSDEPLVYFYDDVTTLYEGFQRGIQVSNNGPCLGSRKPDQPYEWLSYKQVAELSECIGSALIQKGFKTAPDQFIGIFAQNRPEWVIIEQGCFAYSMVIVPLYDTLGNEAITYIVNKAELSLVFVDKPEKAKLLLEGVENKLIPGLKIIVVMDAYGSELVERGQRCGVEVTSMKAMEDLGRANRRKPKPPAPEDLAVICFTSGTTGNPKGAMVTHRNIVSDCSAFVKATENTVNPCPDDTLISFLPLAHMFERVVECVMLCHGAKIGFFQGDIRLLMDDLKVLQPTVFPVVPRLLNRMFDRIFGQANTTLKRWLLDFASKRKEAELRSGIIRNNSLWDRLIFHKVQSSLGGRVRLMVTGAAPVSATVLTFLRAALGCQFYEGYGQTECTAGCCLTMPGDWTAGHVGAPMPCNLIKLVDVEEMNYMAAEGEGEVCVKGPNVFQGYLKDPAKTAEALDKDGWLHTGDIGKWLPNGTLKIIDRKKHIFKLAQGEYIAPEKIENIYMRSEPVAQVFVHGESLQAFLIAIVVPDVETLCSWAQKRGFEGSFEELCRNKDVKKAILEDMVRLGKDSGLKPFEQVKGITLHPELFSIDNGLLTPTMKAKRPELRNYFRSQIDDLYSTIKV
# UniProt Q99943: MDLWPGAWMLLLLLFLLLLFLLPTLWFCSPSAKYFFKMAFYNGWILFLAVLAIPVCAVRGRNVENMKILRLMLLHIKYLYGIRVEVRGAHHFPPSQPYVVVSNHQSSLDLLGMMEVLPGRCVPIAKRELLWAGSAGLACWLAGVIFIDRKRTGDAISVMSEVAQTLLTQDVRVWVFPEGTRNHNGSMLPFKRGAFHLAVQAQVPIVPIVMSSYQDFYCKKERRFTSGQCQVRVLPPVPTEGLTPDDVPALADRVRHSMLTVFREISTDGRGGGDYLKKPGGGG
# UniProt Q53H12: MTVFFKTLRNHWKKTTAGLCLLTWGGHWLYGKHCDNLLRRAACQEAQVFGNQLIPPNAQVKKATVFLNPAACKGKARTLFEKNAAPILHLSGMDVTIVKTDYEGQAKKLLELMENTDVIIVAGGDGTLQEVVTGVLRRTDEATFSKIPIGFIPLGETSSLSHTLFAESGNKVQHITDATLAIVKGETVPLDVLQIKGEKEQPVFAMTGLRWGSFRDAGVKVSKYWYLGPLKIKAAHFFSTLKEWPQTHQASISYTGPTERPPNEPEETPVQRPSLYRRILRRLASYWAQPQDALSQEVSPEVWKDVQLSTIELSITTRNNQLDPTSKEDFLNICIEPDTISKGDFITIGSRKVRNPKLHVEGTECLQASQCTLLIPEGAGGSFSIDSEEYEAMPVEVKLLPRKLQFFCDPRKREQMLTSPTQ
# UniProt P55196: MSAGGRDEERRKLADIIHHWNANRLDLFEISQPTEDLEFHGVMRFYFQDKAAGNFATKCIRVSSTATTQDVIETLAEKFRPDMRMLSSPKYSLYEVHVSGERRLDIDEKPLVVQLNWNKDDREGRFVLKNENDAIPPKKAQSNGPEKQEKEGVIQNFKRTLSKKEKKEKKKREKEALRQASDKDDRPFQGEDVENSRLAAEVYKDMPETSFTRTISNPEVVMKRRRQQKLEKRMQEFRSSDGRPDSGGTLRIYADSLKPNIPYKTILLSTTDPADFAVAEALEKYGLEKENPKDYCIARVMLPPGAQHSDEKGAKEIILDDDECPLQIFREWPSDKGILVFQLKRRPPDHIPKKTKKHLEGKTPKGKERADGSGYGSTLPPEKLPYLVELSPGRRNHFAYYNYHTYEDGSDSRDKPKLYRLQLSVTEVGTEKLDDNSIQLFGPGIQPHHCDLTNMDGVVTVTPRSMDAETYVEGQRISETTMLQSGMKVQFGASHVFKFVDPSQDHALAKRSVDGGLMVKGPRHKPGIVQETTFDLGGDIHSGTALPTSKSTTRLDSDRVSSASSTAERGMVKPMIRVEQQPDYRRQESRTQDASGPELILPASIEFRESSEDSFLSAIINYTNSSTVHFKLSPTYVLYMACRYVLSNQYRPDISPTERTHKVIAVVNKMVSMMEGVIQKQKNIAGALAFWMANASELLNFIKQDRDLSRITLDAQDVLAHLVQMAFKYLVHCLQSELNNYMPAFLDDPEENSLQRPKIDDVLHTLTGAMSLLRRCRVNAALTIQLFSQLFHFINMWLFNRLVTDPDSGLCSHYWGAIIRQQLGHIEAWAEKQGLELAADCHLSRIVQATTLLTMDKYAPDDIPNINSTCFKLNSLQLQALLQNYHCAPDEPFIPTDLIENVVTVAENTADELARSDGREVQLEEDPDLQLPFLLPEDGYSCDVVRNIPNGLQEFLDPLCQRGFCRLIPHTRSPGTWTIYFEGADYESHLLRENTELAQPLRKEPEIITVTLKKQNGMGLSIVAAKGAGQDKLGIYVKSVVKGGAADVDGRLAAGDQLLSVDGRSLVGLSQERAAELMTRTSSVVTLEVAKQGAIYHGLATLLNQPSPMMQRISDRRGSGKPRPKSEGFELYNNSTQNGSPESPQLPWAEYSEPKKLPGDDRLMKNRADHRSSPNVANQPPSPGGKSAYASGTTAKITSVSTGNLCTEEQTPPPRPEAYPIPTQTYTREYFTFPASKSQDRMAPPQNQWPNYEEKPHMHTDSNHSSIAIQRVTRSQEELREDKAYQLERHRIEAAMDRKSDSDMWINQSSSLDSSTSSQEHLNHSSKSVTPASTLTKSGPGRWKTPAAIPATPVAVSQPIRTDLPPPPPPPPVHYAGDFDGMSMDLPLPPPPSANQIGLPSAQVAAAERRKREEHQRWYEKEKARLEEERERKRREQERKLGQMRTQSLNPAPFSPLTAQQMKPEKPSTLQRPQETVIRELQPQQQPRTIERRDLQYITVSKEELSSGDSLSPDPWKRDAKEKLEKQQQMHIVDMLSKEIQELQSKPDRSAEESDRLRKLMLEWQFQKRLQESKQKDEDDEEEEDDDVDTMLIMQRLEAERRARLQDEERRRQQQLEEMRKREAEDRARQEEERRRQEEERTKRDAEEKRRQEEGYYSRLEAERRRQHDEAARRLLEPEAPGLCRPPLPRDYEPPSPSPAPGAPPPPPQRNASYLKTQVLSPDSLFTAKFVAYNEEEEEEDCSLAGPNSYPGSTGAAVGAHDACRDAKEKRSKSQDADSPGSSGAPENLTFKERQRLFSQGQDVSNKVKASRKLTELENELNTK
# UniProt P02771: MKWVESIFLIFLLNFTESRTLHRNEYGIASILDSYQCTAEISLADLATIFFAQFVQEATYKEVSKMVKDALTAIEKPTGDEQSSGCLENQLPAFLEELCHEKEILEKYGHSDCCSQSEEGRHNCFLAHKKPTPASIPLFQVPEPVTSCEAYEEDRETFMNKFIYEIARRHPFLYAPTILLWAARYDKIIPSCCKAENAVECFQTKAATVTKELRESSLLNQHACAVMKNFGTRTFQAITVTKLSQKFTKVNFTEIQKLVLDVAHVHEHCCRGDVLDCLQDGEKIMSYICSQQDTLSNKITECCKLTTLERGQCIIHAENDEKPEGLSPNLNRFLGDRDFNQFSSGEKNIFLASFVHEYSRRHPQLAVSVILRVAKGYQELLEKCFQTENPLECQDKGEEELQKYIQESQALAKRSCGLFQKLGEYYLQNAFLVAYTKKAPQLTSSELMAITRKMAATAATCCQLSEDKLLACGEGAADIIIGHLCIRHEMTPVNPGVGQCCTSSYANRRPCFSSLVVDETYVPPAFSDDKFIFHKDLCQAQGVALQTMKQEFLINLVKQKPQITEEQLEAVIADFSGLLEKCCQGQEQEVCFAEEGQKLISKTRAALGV
# UniProt Q9NUB1: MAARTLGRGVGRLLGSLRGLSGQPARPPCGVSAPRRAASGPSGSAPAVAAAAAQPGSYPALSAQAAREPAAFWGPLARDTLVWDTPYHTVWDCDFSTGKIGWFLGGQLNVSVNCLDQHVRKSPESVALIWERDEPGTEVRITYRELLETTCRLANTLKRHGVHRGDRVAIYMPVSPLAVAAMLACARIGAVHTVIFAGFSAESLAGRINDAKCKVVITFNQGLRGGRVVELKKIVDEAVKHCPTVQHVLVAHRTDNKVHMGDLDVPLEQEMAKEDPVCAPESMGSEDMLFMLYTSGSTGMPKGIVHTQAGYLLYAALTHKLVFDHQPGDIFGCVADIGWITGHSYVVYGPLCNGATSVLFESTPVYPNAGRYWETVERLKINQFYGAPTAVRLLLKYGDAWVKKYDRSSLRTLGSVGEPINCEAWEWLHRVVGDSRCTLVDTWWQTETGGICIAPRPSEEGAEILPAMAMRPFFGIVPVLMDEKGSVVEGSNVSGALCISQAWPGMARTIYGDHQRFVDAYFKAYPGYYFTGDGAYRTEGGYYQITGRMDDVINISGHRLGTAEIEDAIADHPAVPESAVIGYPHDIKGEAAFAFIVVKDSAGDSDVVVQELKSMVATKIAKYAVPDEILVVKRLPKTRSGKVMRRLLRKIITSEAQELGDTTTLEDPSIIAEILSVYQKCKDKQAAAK
# UniProt Q96P47: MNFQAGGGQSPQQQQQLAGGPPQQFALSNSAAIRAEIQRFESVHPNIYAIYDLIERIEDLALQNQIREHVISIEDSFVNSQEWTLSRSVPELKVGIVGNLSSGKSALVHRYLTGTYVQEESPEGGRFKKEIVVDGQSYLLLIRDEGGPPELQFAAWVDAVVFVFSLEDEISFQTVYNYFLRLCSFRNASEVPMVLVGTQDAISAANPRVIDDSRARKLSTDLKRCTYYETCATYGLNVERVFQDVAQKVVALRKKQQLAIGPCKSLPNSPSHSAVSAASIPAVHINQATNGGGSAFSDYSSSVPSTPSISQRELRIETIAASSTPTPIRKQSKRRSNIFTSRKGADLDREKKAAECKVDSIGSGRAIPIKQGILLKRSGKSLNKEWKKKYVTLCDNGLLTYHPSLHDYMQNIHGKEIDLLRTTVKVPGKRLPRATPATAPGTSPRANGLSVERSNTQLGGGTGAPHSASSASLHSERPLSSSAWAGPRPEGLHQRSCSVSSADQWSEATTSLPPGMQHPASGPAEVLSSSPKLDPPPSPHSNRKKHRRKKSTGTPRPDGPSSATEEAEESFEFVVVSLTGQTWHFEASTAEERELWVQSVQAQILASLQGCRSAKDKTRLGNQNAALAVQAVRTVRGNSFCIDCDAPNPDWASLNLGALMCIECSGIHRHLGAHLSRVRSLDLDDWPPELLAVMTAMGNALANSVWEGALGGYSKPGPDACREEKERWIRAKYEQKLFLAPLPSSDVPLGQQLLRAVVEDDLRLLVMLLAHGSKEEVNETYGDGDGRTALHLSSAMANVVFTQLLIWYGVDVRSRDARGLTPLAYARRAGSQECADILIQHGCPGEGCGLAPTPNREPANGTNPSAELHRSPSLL
# UniProt O14672: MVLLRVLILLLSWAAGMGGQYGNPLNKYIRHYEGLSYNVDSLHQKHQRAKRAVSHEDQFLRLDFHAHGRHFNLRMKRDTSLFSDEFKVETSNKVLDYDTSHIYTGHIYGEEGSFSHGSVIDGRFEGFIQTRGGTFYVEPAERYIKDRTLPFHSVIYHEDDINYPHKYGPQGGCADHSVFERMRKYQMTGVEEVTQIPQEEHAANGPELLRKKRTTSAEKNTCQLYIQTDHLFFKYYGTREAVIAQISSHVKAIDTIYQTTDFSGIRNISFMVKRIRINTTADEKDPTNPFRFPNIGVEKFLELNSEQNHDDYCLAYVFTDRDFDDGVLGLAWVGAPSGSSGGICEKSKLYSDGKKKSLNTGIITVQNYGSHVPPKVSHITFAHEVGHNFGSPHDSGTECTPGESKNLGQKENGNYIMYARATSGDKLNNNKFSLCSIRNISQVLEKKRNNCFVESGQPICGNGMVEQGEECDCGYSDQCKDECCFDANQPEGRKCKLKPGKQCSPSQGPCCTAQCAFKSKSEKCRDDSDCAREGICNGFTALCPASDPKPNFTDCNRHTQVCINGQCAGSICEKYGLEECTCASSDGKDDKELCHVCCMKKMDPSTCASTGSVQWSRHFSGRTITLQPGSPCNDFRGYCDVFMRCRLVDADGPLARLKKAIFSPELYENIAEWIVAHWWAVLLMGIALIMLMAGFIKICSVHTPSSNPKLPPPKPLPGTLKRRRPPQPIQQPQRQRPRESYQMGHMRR
# UniProt Q562R1, whole entry, looked up: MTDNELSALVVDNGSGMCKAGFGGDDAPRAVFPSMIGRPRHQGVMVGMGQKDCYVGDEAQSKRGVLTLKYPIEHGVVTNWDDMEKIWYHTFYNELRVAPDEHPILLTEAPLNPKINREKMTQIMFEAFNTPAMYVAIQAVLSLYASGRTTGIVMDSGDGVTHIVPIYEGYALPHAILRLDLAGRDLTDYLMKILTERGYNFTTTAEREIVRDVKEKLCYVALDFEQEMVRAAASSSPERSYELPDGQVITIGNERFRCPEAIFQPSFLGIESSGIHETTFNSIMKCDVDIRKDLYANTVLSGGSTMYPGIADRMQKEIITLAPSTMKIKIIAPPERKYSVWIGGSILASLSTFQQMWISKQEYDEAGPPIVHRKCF
# This is one part of the list.
# Experiments:
# Test in all cases: log2 fold change, soluble protein after heating vs DMSO (PISA); higher = thermal stabilisation; K562 lysate, 10 uM; active = over 0.2 and 3.5 SD of the protein, either way, in both replicates (recomputed)
# [1] = compound: CS(=O)(=O)CCNCc1ccc(-c2ccc3ncnc(Nc4ccc(OCc5cccc(F)c5)c(Cl)c4)c3c2)o1 [lapatinib]
# Method in brief: (§1)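 K562 pellets were dounce-homogenised in PBS pH 7.4 containing 1 mM MgCl2, and the crude extract, at 1 mg/mL protein, was exposed to 10 μM compound for 30 min. Aliquots were heated for 3 min across 48°C-58°C, pooled, brought to 0.5% NP-40 at 4°C and spun at 21,000xg for 90 min, with the supernatant taken as soluble protein. TMTpro 16plex LC-MS/MS with equalised channel sums quantified that protein. Values are log-two fold changes in thermal stability relative to solvent controls, taken from duplicates.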
# [2] = compound: CS(=O)(=O)N1CCN(Cc2cc3nc(-c4cccc5[nH]ncc45)nc(N4CCOCC4)c3s2)CC1 [pictilisib]
# Method in brief: as §1
# [3] = compound: C[C@@H](Oc1cc(-c2cnn(C3CCNCC3)c2)cnc1N)c1c(Cl)ccc(F)c1Cl [crizotinib]
# Method in brief: as §1
# [4] = compound: C[C@H](C1=CC=C(C=C1)C(=O)NC2=C3C=CNC3=NC=C2)N
# Method in brief: as §1
# [5] = compound: C[C@H](Nc1ncnc2nc[nH]c12)c1cc2cccc(Cl)c2c(=O)n1-c1ccccc1 [duvelisib]
# Method in brief: as §1
# [6] = compound: Cc1cc(Nc2cc(CN3CCOCC3)c3nc(C)c(Cc4ccc(Cl)cc4F)n3n2)n[nH]1 [gandotinib]
# Method in brief: as §1
# [7] = compound: Cc1cc(Nc2cc(N3CCN(C)CC3)nc(Sc3ccc(NC(=O)C4CC4)cc3)n2)n[nH]1 [tozasertib]
# Method in brief: as §1
# [8] = compound: Cc1ccc(-n2nc(C(C)(C)C)cc2NC(=O)Nc2ccc(OCCN3CCOCC3)c3ccccc23)cc1 [doramapimod]
# Method in brief: as §1
# [9] = compound: Cc1ccc(NC(=O)c2ccc(CN3CC[C@H](N(C)C)C3)c(C(F)(F)F)c2)cc1Nc1nccc(-c2cncnc2)n1 [bafetinib]
# Method in brief: as §1
# [10] = compound: Cc1cccc(CC(=O)N2CCc3c2ccc(-c2cn(C)c4ncnc(N)c24)c3F)n1
# Method in brief: as §1
# [11] = compound: Cc1cn(-c2cc(NC(=O)c3ccc(C)c(Nc4nccc(-c5cccnc5)n4)c3)cc(C(F)(F)F)c2)cn1 [nilotinib]
# Method in brief: as §1
# [12] = compound: Cc1nc(Nc2n[nH]c3c2CN(C(=O)N[C@H](CN(C)C)c2ccccc2)C3(C)C)c2sccc2n1
# Method in brief: as §1
# [13] = compound: Cc1nc(Nc2ncc(C(=O)Nc3c(C)cccc3Cl)s2)cc(N2CCN(CCO)CC2)n1 [dasatinib]
# Method in brief: as §1
# [14] = compound: Cc1ncc(-c2ccnc(Nc3ccc(S(C)(=O)=O)cc3)n2)n1C(C)C
# Method in brief: as §1
# [15] = compound: Cn1cc(-c2ccc3c(c2)CCN3C(=O)Cc2cccc(C(F)(F)F)c2)c2c(N)ncnc21
# Method in brief: as §1
# [16] = compound: Cn1cc(CNCC2CCN(c3ncc(C(=O)NO)cn3)CC2)c2ccccc21 [quisinostat]
# Method in brief: as §1
# [17] = compound: Cn1cncc1[C@@](N)(c1ccc(Cl)cc1)c1ccc2c(c1)c(-c1cccc(Cl)c1)cc(=O)n2C [tipifarnib]
# Method in brief: as §1
# [18] = compound: NC(=O)Nc1cc(-c2cccc(F)c2)sc1C(=O)N[C@H]1CCCNC1
# Method in brief: as §1
# [19] = compound: NC(=O)c1cnc(N[C@@H]2CCCC[C@@H]2N)nc1Nc1cccc(-n2nccn2)c1
# Method in brief: as §1
# [20] = compound: NC1(c2ccc(-c3nc4ccn5c(=O)[nH]nc5c4cc3-c3ccccc3)cc2)CCC1
# Method in brief: as §1
Target,log2 fold change [1],log2 fold change [2],log2 fold change [3],log2 fold change [4],log2 fold change [5],log2 fold change [6],log2 fold change [7],log2 fold change [8],log2 fold change [9],log2 fold change [10],log2 fold change [11],log2 fold change [12],log2 fold change [13],log2 fold change [14],log2 fold change [15],log2 fold change [16],log2 fold change [17],log2 fold change [18],log2 fold change [19],log2 fold change [20]
ACSL1 (UniProt P33121),inactive: -0.03,inactive: -0.094,inactive: -0.115,inactive: 0.021,inactive: 0.043,inactive: -0.049,inactive: 0.033,inactive: 0.053,inactive: -0.038,inactive: 0.061,inactive: -0.004,inactive: -0.002,inactive: -0.132,inactive: 0.013,inactive: 0.05,inactive: 0.007,inactive: -0.013,inactive: 0.034,inactive: -0.025,inactive: -0.04
ACTN4 (UniProt K7EJH8),inactive: 0.024,inactive: 0.089,inactive: -0.037,inactive: -0.061,inactive: 0.084,inactive: 0.117,inactive: 0.021,inactive: 0.087,inactive: -0.02,inactive: -0.095,inactive: 0.036,inactive: -0.014,inactive: 0.076,inactive: 0.076,inactive: 0.004,inactive: -0.084,inactive: 0.017,inactive: 0.107,inactive: -0.007,
AGPAT1 (UniProt Q99943),inactive: -0.122,inactive: 0.009,inactive: -0.029,inactive: -0.019,inactive: 0.009,inactive: -0.034,inactive: 0.041,inactive: 0.028,inactive: -0.057,inactive: 0.091,inactive: -0.021,inactive: -0.004,inactive: -0.069,inactive: 0.055,inactive: -0.062,inactive: 0.043,inactive: -0.058,inactive: -0.028,inactive: 0.028,inactive: -0.003
ADRM1 (UniProt Q16186),inactive: -0.009,inactive: -0.012,inactive: -0.05,inactive: 0.019,inactive: 0.03,inactive: -0.014,inactive: -0.019,inactive: 0.042,inactive: 0.006,inactive: 0.02,inactive: 0.002,inactive: -0.006,inactive: -0.063,inactive: 0.015,inactive: -0.003,inactive: -0.102,inactive: -0.017,inactive: 0.011,inactive: 0.008,inactive: -0.003
AKR1B1 (UniProt P15121),inactive: -0.009,inactive: 0.006,inactive: 0.065,inactive: -0.102,inactive: -0.006,inactive: 0.037,inactive: -0.014,inactive: -0.022,inactive: 0.011,inactive: 0.006,inactive: 0.031,inactive: -0.022,inactive: 0.086,inactive: 0.028,inactive: -0.136,inactive: 0.016,inactive: -0.036,inactive: 0.03,inactive: -0.009,inactive: 0.038
AGK (UniProt Q53H12),inactive: -0.021,inactive: 0.017,inactive: -0.022,inactive: 0.04,inactive: -0.012,inactive: -0.099,inactive: -0.02,inactive: -0.003,inactive: 0,inactive: -0.019,inactive: -0.035,inactive: -0.022,inactive: -0.019,inactive: 0.016,inactive: 0.008,inactive: 0.143,inactive: -0.011,inactive: 0.002,inactive: -0.008,inactive: -0.054
AFDN isoform 1 (UniProt P55196),inactive: -0.009,inactive: -0.009,inactive: -0.037,inactive: 0.027,inactive: -0.009,inactive: -0.059,inactive: 0.008,inactive: 0.029,inactive: -0.038,inactive: 0.002,inactive: 0.014,inactive: 0,inactive: -0.025,inactive: -0.005,inactive: -0.004,inactive: -0.027,inactive: -0.015,inactive: 0.016,inactive: -0.009,inactive: 0.005
AFP (UniProt P02771),inactive: 0.123,inactive: -0.053,inactive: 0.084,inactive: 0.116,inactive: -0.026,inactive: -0.051,inactive: -0.011,inactive: -0.032,inactive: 0.023,inactive: -0.154,inactive: -0.037,inactive: 0.022,inactive: 0.054,inactive: -0.01,inactive: 0.024,inactive: 0.003,inactive: -0.012,inactive: 0.02,inactive: -0.173,inactive: -0.012
ACTR2 (UniProt P61160),inactive: -0.017,inactive: -0.031,inactive: 0.015,inactive: 0.008,inactive: 0.038,inactive: 0.005,inactive: -0.013,inactive: 0.002,inactive: 0.036,inactive: -0.026,inactive: -0.001,inactive: -0.009,inactive: -0.013,inactive: -0.005,inactive: 0.002,inactive: 0.003,inactive: 0.032,inactive: -0.004,inactive: -0.033,inactive: -0.007
"ACTB, A0A2R8Y793",inactive: -0.012,inactive: -0.012,inactive: -0.011,inactive: 0.009,inactive: -0.013,inactive: -0.009,inactive: -0.023,inactive: -0.023,inactive: 0.015,inactive: -0.032,inactive: 0.031,inactive: -0.012,inactive: 0.004,inactive: 0.014,inactive: -0.008,inactive: -0.012,inactive: 0.004,inactive: 0.056,inactive: 0.005,inactive: -0.01
AFDN (UniProt J3KN01),inactive: -0.018,inactive: -0.025,inactive: -0.026,inactive: 0.021,inactive: 0.028,inactive: -0.023,inactive: 0.011,inactive: 0.042,inactive: -0.052,inactive: 0.1,inactive: -0.006,inactive: -0.007,inactive: -0.066,inactive: -0.027,inactive: 0.01,inactive: -0.03,inactive: 0.048,inactive: 0.033,inactive: -0.012,inactive: 0.057
ACSS1 (UniProt Q9NUB1),inactive: -0.082,inactive: 0.025,inactive: -0.008,inactive: 0.019,inactive: -0.17,inactive: -0.046,inactive: -0.049,inactive: 0.044,inactive: -0.058,inactive: 0.045,inactive: 0.086,inactive: 0.18,inactive: 0.055,inactive: 0.166,inactive: -0.113,inactive: -0.123,inactive: 0.111,inactive: 0.072,inactive: 0.045,
AGAP3 isoform 4 (UniProt Q96P47),inactive: -0.024,inactive: -0.066,inactive: -0.024,inactive: 0.053,inactive: -0.076,inactive: -0.088,inactive: 0.052,inactive: -0.002,inactive: -0.076,inactive: 0.007,inactive: 0.037,inactive: -0.007,inactive: -0.025,inactive: -0.088,inactive: 0.027,inactive: -0.032,inactive: 0.022,inactive: 0.032,inactive: 0.001,inactive: 0.005
ADAM10 (UniProt O14672),inactive: -0.033,inactive: -0.012,inactive: 0.014,inactive: -0.145,inactive: 0.043,inactive: 0.028,inactive: -0.003,inactive: 0.024,inactive: 0.038,inactive: 0.005,inactive: 0.051,inactive: -0.046,inactive: 0,inactive: 0.053,inactive: -0.004,inactive: -0.055,inactive: 0.017,inactive: 0.002,inactive: 0.016,inactive: 0.022
ACTBL2 (UniProt Q562R1),inactive: 0.163,inactive: 0.102,inactive: 0.091,inactive: 0.408,inactive: -0.035,inactive: -0.166,inactive: -0.201,inactive: -0.15,inactive: 0.37,active: -0.547,inactive: 0.32,inactive: -0.036,inactive: -0.075,inactive: 0.139,inactive: -0.067,inactive: 0.184,inactive: 0.087,inactive: -0.03,inactive: -0.008,inactive: 0.006
AGO4 (UniProt Q9HCK5),inactive: 0.013,inactive: -0.076,inactive: -0.01,inactive: -0.113,inactive: 0.014,inactive: 0.048,inactive: -0.001,inactive: -0.014,inactive: -0.004,inactive: 0.002,inactive: -0.152,inactive: 0.07,inactive: 0,inactive: 0.004,inactive: -0.022,inactive: -0.037,inactive: 0.005,inactive: 0.015,inactive: 0.014,inactive: -0.002

# Single values from the entries so far:
# log2 fold change [14] with ACSS1 (UniProt Q9NUB1) reads inactive: 0.166
# log2 fold change [10] with AKR1B1 (UniProt P15121) reads inactive: 0.006
